Patent US20180353755A1, “EPIDURAL STIMULATION FOR FACILITATION OF LOCOMOTION, POSTURE, VOLUNTARY MOVEMENT, AND RECOVERY OF AUTONOMIC, SEXUAL, VASOMOTOR, AND COGNITIVE FUNCTION AFTER NEUROLOGICAL INJURY” (NeuroRecovery Technologies, Inc., priority 2014, published 2018)

Tested on: spinal neuromotor networks
Assay: Pharmacological facilitation of stepping in animals: optimal concentration of illustrative agents (Table 1)
Format: in vivo

CCCN(CCC)C1CCc2cccc(O)c2C1 (stereo not shown) [8-OHDPAT]
Optimal Concentration (Route S.C.): 0.05 mg/kg

Clc1cccc(Cl)c1N=C1NCCN1 [Clonidine]
Optimal Concentration (Route I.P.): 0.5 mg/kg

CCc1cc(Cl)c(OC)c(C(=O)NC[C@@H]2CCCN2CC)c1O [Eticlopride]
Optimal Concentration (Route I.P.): 1.8 mg/kg

O=C(c1ccc(F)cc1)C1CCN(CCn2c(=O)[nH]c3ccccc3c2=O)CC1 [Ketanserin]
Optimal Concentration (Route I.P.): 3 mg/kg

COc1ccc(OC)c(C(O)C(C)N)c1 (stereo not shown) [Methoxamine]
Optimal Concentration (Route I.P.): 2.5 mg/kg

Cc1nccn1CC1CCc2c(c3ccccc3n2C)C1=O (stereo not shown) [Ondanesetron]
Optimal Concentration (Route I.P.): 3 mg/kg

COc1cc2nc(N3CCN(C(=O)c4ccco4)CC3)nc(N)c2cc1OC [Prazosin]
Optimal Concentration (Route I.P.): 3 mg/kg

c1ccc2nc(N3CCNCC3)ccc2c1 [Quipazine]
Optimal Concentration (Route I.P.): 0.2 mg/kg

CC1CCN(CC[C@H]2CCCN2S(=O)(=O)c2cccc(O)c2)CC1 [SB 269970]
Optimal Concentration (Route I.P.): 7 mg/kg

Oc1cc2c(c(Cl)c1O)CCNCC2c1ccccc1 (stereo not shown) [SKF-81297]
Optimal Concentration (Route I.P.): 0.2 mg/kg

Cl.NC1CCN(c2cccc(Cl)n2)CC1 [SR 57227A]
Optimal Concentration (Route I.P.): 1.5 mg/kg

COc1ccccc1N1CCN(CCN(C(=O)C2CCCCC2)c2ccccn2)CC1 [Way 100.635]
Optimal Concentration (Route I.P.): 0.5 mg/kg

COC(=O)[C@@H]1[C@H]2C[C@H]3c4[nH]c5ccccc5c4CCN3C[C@@H]2CC[C@@H]1O [Yohimbine]
Optimal Concentration (Route I.P.): 0.4 mg/kg
